Measurements from publication PMC5799240.
Results are given in words; binding and its absence hold for the method and conditions named. Some entries that bind do so weakly or less than the wild type.

By UniProt entry, the sequences of proteins in these tests, tags left out.
UniProt P39076: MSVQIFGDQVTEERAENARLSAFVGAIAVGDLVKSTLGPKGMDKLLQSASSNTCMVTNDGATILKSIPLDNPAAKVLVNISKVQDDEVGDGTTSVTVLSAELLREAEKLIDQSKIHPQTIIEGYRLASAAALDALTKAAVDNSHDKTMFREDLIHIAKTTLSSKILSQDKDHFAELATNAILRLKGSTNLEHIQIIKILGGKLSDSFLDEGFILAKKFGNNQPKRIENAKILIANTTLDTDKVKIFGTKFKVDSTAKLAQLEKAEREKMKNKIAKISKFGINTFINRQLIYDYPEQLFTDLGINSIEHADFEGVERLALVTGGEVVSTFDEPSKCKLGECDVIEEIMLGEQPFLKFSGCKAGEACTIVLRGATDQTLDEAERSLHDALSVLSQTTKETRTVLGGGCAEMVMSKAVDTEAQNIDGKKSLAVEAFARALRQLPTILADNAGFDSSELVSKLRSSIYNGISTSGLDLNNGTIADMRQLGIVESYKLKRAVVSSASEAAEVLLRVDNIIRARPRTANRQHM
UniProt P39078: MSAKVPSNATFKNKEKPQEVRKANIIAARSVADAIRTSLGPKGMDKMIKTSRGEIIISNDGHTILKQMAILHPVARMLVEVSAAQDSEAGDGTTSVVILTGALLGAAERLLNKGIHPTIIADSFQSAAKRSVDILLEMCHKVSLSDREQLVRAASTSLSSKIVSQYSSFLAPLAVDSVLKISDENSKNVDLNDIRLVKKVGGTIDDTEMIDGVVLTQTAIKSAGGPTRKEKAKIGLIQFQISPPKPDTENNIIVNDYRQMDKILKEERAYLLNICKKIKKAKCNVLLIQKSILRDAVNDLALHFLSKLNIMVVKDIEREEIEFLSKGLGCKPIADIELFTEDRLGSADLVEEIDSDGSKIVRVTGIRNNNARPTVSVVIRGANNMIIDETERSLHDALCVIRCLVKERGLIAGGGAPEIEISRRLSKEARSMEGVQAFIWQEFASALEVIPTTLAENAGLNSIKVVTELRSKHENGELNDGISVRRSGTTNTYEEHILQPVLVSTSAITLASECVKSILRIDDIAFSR

Experiments:
[1] = molecular target: TRiC subunit CCT2 with an internal eGFP tag (CCT2-eGFP) (yeast (BY4741 or BY4742)) (UniProt P39076); assay: cryo-EM structure; both-ring closed state: purified tagged TRiC incubated with 1 mM ATP, 5 mM MgCl2, 5 mM Al(NO3)3, 30 mM NaF for 1 h at 30 °C before freezing; subunit located by the extra density of its tag; both purified
[2] = molecular target: TRiC subunit CCT2 (yeast (endogenous in BY4741 or BY4742)) (UniProt P39076); assay: cryo-EM structure; open nucleotide partially preloaded (NPP) state of purified tagged TRiC; grid pretreated with polylysine; subunit located by the extra density of its eGFP tag; both purified

Substance | binding [1] | binding [2]
TRiC subunit CCT2 with an internal eGFP tag (CCT2-eGFP) (from UniProt P39076 1-527) | binds | –
TRiC subunit CCT4 with an internal eGFP tag (CCT4-eGFP) (from UniProt P39078 1-528) | – | binds
